Results as given in patent US20220119511A1, “COMPOSITIONS AND METHODS FOR TREATMENT OF DIABETES, OBESITY, HYPER-CHOLESTEROLEMIA, AND ATHEROSCLEROSIS BY INHIBITION OF SAM68” (The UAB Research Foundation, priority 2020, published 2022).
Results are given in words; binding and its absence hold for the method and conditions named. Binding seen in cells or lysates may run through a third protein. Some entries that bind do so weakly or less than the wild type. Tags and fused reporters may be left off the sequences shown.

Protein sequences, listed by entry. Tags and fused reporters are not part of them.
UniProt Q60749: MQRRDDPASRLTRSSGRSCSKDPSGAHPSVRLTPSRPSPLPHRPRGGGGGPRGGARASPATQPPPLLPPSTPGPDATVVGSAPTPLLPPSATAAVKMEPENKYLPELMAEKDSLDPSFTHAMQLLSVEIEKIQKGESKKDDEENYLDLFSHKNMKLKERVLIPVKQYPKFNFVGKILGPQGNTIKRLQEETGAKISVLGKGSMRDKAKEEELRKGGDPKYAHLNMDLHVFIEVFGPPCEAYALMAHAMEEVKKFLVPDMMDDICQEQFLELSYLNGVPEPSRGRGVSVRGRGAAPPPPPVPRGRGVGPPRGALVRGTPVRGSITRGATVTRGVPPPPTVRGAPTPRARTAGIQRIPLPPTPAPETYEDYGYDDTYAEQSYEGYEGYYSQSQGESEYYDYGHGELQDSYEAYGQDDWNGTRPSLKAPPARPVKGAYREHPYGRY

Legend:
[1] = target: T1, FLAG-tagged CRTC2 (pcDNA3-Flag-CRTC2) (UniProt Q3U182); assay: co-IP in co-transfected 293T cells (anti-Flag IP with anti-HA blot, and anti-HA IP with anti-Flag blot)
T1 sequence (looked up): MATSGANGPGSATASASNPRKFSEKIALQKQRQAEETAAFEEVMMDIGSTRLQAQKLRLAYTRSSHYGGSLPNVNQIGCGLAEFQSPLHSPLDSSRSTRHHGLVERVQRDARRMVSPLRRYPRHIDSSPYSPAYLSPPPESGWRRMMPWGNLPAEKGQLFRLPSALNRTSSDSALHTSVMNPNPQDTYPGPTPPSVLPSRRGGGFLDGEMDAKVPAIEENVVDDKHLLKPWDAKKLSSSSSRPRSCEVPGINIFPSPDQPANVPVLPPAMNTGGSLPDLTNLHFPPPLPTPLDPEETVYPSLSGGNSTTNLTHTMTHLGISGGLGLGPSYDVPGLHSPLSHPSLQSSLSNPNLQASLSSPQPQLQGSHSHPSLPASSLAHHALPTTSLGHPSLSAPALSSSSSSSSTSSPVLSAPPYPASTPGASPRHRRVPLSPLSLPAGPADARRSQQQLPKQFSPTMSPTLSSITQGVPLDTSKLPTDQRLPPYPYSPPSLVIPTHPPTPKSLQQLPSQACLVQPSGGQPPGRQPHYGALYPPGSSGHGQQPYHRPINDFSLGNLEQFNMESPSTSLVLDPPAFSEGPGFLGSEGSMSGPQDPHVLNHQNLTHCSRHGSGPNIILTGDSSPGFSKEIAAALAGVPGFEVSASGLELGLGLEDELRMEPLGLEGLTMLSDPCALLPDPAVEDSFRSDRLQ

[2] = target: T1, FLAG-tagged CRTC2 (pcDNA3-Flag-CRTC2); assay: co-IP in co-transfected 293T cells (FIG. 7C, 7D)
[3] = target: T1, FLAG-tagged CRTC2 (pcDNA3-Flag-CRTC2); assay: co-IP in co-transfected 293T cells (FIG. 8C)

Measured: binding

hemagglutinin (HA)-tagged Sam68, full-length (pcDNA3-HA-Sam68) (from UniProt Q60749 1-443)
binds: all assays above
